This note sets out measurements from patent publication US20090155236A1, “Peptide sequence for modulation of delta protein kinase c” (NATIONAL INSTITUES OF HEALTH (NIH), U.S. DEPT OF HEALTH AND …, priority 2004, published 2009).

For assay [1], the target named is recombinant full-length delta PKC (rat). Description: ELISA, delta PKC immobilised, peptide-alkaline phosphatase fusion, absorbance at 405 nm. (An ELISA detects its analyte on a solid surface through an enzyme-linked reagent.)
The target is the same in assay [2]. In words: ELISA, delta PKC immobilised, peptide-alkaline phosphatase fusion.
For assay [3] the target is unchanged. In words: ELISA.

No constants are given. Whether binding was seen depends on the method and setting. Binding calls can cover weak binding; strength is not graded here. For part of these data: Tags and fused reporters may be left off the sequences shown.

On to MAAAEDP (peptide, not shown: large carriers) [peptide MAAAEDP (SEQ ID NO:17) fused to alkaline phosphatase], for which the binding result in assay [1] is recorded as “no binding”.
With MQAARDP (peptide, not shown: large carriers) [peptide MQAARDP (SEQ ID NO:12) fused to alkaline phosphatase], the binding result in assay [2] and in assay [1] was “binds” in each case.
In the case of MRAAADP (peptide, not shown: large carriers) [peptide MRAAADP (SEQ ID NO:16) fused to alkaline phosphatase], in assay [1], the binding entry is on record as “no binding”.

B1: annexin I (protein)
chain: AMVSEFLKQAWFIENEEQEYVQTVKSSKGGPGSAVSPYPTFNPSSDVAALHKAIMVKGVDEATIIDILTKRNNAQRQQIKAAYLQETGKPLDETLKKALTGHLEEVVLALLKTPAQFDADELRAAMKGLGTDEDTLIEILASRTNKEIRDINRVYREELKRDLAKDITSDTSGDFRNALLSLAKGDRSEDFGVNEDLADSDARALYEAGERRKGTDVNVFNTILTTRSYPQLRRVFQKYTKYSKHDMNKVLDLELKGDIEKCLTAIVKCATSKPAFFAEKLHQAMKGVGTRHKALIRIMVSRSEIDMNDIKAFYQKMYGISLCQAILDETKGDYEKILVALCGGN
On to B1, for which the binding entry in assay [3] was “binds”.
Take MRAAEDP (peptide, not shown: large carriers) [peptide MRAAEDP (SEQ ID NO:18) fused to alkaline phosphatase]: the binding entry in assay [1] is “binds”.
For the molecule MEAAEDP (peptide, not shown: large carriers) [peptide MEAAEDP (SEQ ID NO:15) fused to alkaline phosphatase], the binding result in assay [2] and in assay [1] was “binds” throughout.
Take MRAAQDP (peptide, not shown: large carriers) [peptide MRAAQDP (SEQ ID NO:14) fused to alkaline phosphatase]: the binding entry in assay [2] and in assay [1] was “binds” in each case.
As for MRAAENP (peptide, not shown: large carriers) [peptide MRAAENP (SEQ ID NO:13) fused to alkaline phosphatase], the binding entry in assay [2] and in assay [1] was “binds” each time.
